{"source": "PubChem BioAssay AID1159617 (Peter MacCallum Cancer Centre, 2016)", "screen": "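Size and shape changes after knock-down in blood and lymph vessel endothelial cells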 (tertiary re-screen of migration hits)", "cells": "human HMBEC blood microvascular and HDLEC lymphatic endothelial cells", "reagent": "siRNA pool against human genes, 40 nM", "read-out": "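Actin stained with phalloidin and imaged; area and length measured per cell, averaged across replicates and expressed as robust z-scores over the whole screen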", "scale": "cell area z-score, HMBEC and cell area z-score, HDLEC: higher = larger cells", "note": "This is one part, drawn at random, of 153 deposited reagents. 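Values are robust z-scores scaled across the full screen; higher values mean larger or longer cells.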 Not all columns of the deposit are shown. Not given: the time to read-out."}
{"gene knocked down":"FLT3","cell area z-score, HMBEC":0.31,"cell area z-score, HDLEC":-0.49}
{"gene knocked down":"PRKD3","cell area z-score, HMBEC":-0.97,"cell area z-score, HDLEC":-1.29}
{"gene knocked down":"CRCT1","cell area z-score, HMBEC":-0.35,"cell area z-score, HDLEC":-0.98}
{"gene knocked down":"SELPLG","cell area z-score, HMBEC":-0.17,"cell area z-score, HDLEC":1.7}
{"gene knocked down":"CSNK1G3","cell area z-score, HMBEC":0.4,"cell area z-score, HDLEC":0.71}
{"gene knocked down":"FBXO7","cell area z-score, HMBEC":0.81,"cell area z-score, HDLEC":0.45}
{"gene knocked down":"JUN","cell area z-score, HMBEC":-0.38,"cell area z-score, HDLEC":-0.11}
{"gene knocked down":"PI4KB","cell area z-score, HMBEC":-0.57,"cell area z-score, HDLEC":-0.75}
{"gene knocked down":"CKM","cell area z-score, HMBEC":-0.65,"cell area z-score, HDLEC":-0.3}
{"gene knocked down":"FMC1","cell area z-score, HMBEC":0.6,"cell area z-score, HDLEC":1.03}
{"gene knocked down":"PIK3AP1","cell area z-score, HMBEC":0.55,"cell area z-score, HDLEC":1.16}
{"gene knocked down":"CWC22","cell area z-score, HMBEC":-0.49,"cell area z-score, HDLEC":-0.2}
{"gene knocked down":"C5AR1","cell area z-score, HMBEC":-0.2,"cell area z-score, HDLEC":-1.2}
{"gene knocked down":"SLC26A11","cell area z-score, HMBEC":-1.13,"cell area z-score, HDLEC":-1.29}
{"gene knocked down":"TYRO3","cell area z-score, HMBEC":0.33,"cell area z-score, HDLEC":-0.25}
{"gene knocked down":"APOBEC3D","cell area z-score, HMBEC":-0.01,"cell area z-score, HDLEC":-0.51}
{"gene knocked down":"CLCN7","cell area z-score, HMBEC":1.05,"cell area z-score, HDLEC":1.78}
{"gene knocked down":"NFATC4","cell area z-score, HMBEC":-1.07,"cell area z-score, HDLEC":-0.53}
{"gene knocked down":"ABCA2","cell area z-score, HMBEC":0.7,"cell area z-score, HDLEC":0.38}
{"gene knocked down":"CDC42","cell area z-score, HMBEC":-0.97,"cell area z-score, HDLEC":-0.15}
{"gene knocked down":"BORCS6","cell area z-score, HMBEC":2.07,"cell area z-score, HDLEC":0.55}

An excerpt taken from the entries so far, as a working copy:
{"gene knocked down":"CKM","cell area z-score, HMBEC":-0.65,"cell area z-score, HDLEC":-0.3}
{"gene knocked down":"FMC1","cell area z-score, HMBEC":0.6,"cell area z-score, HDLEC":1.03}
{"gene knocked down":"PIK3AP1","cell area z-score, HMBEC":0.55,"cell area z-score, HDLEC":1.16}
